Reference: PubChem BioAssay AID504764 (Drosophila RNAi Screening Center, 2011)
The deposit covers about 22,000 reagents; below is an unselected part of those that have a named target and a result. Over the whole deposit, 403 (1.9%) are marked active. 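Unnormalised raw counts per well; ratio z-scores behind the hit calls and whether each hit raises or lowers signal are not deposited.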 Reagent sequences are not shown. Not given: the amount of reagent.

Screen: 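Genes whose knock-down alters Notch-dependent transcription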 (primary screen)
Cell system: Drosophila Kc167 cells
Reagents: long dsRNA against Drosophila genes
Duration: about 5 days (4 days dsRNA, then 24 h after transfection)
Conditions: transfection of constitutively active membrane-tethered Notch lacking the extracellular domain, read 24 h later
Measurement: 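Light from a Notch-responsive E(spl)m3 luciferase reporter under active Notch, with control-promoter and no-Notch reporter wells to normalise; raw counts from paired wells a and b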
Direction: induced reporter light, run 1, well a and induced reporter light, run 1, well b: higher = more light from the Notch target reporter with active Notch; control promoter light, run 1, well a and control promoter light, run 1, well b: higher = more light from the viral control promoter (cell number, transfection, viability); uninduced reporter light, run 1, well a: higher = more light from the Notch target reporter without active Notch
Rule for the call: 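Hit if the duplicate-averaged log2 ratio of induced to control-promoter light gives a plate-wise z beyond ±2, or induced to uninduced beyond ±1.8; weak-control or discordant-duplicate wells dropped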
Calls: active = modifier hit (raised or lowered Notch signal); inactive = not a hit

gene knocked down	amplicon	induced reporter light, run 1, well a	induced reporter light, run 1, well b	control promoter light, run 1, well a	control promoter light, run 1, well b	uninduced reporter light, run 1, well a	Call
CG6927	DRSC18407	2.86e5	2.91e5	4.22e5	4.45e5	19270	inactive
mRpS18C	DRSC16538	1.50e5	1.32e5	1.91e5	1.69e5	12080	inactive
Abp1	DRSC09693	50585	50670	61870	58010	6515	active
CG5819	DRSC04520	46675	46645	62900	61790	2470	inactive
Tsp29Fa	DRSC03232	99665	1.47e5	97525	1.14e5	17062	inactive
Tssk	DRSC14784	2.51e5	2.22e5	2.56e5	2.16e5	15490	inactive
Cpr65Ec	DRSC11025	2.40e5	2.29e5	2.42e5	2.66e5	10715	inactive
Argk2	DRSC10483	2.14e5	2.14e5	2.61e5	1.91e5	12230	inactive
Acsx2	DRSC14308	1.92e5	1.82e5	2.11e5	1.99e5	12530	inactive
Kdm4B	DRSC06862	1.86e5	1.82e5	1.92e5	2.19e5	14875	inactive
CG34445	DRSC22404						inactive
Ir48a	DRSC05301	1.61e5	1.72e5	2.38e5	2.29e5	19155	inactive
ktub	DRSC04551	1.99e5	2.02e5	1.73e5	1.84e5	15642	inactive
corto	DRSC12375	94305	1.05e5	1.03e5	95595	8065	inactive
CG7328	DRSC10812	1.04e5	1.08e5	1.03e5	1.01e5	8975	inactive
D19A	DRSC11133	64005	63625	52190	24800	7010	inactive
CG4294	DRSC04460	1.95e5	1.45e5	1.15e5	1.06e5	10045	inactive
CG34008	DRSC13428	56435	43030	57900	52515	6915	inactive
AdamTS-B	DRSC18346	1.50e5	1.48e5	3.24e5	3.13e5	12115	inactive
CG15514	DRSC15053	1.63e5	1.66e5	1.93e5	1.98e5	9810	inactive
CG10300	DRSC14225	1.81e5	2.02e5	1.96e5	1.80e5	15430	inactive
pros	DRSC12856	1.76e5	1.44e5	1.79e5	2.14e5	12270	inactive
pros	DRSC17032	1.32e5	1.36e5	83580	81480	8670	inactive
pros	DRSC22612						inactive
Phae2	DRSC02555	1.37e5	1.47e5	1.55e5	1.32e5	12485	inactive
UQCR-14L	DRSC15288	1.28e5	1.18e5	1.56e5	1.62e5	11280	inactive
UQCR-14L	DRSC22425						inactive
CG3104	DRSC00567	1.27e5	1.33e5	1.34e5	1.24e5	9635	inactive
Rh3	DRSC16822	2.02e5	1.92e5	2.19e5	2.52e5	15925	inactive
SdhD	DRSC14215	1.67e5	1.63e5	2.12e5	2.07e5	13405	inactive
Pp1-Y1	DRSC20896	2.45e5	1.85e5	2.96e5	2.83e5	14645	inactive
LysS	DRSC08677	1.22e5	1.39e5	1.64e5	1.96e5	5195	inactive
CG32485	DRSC22666						inactive
wat	DRSC14854	1.14e5	1.07e5	1.38e5	1.49e5	10955	inactive
Smyd4-3	DRSC07041	99325	1.36e5	1.07e5	86565	9920	inactive
CG11050	DRSC02125	88305	89610	66710	63410	13185	inactive
nec	DRSC06769	2.28e5	1.91e5	2.63e5	2.03e5	17810	inactive
Pcp	DRSC03395	60650	53830	63590	57830	4245	inactive
mRpS17	DRSC04463	2.24e5	1.80e5	2.07e5	1.96e5	13220	inactive
CG10208	DRSC14211	1.74e5	1.73e5	2.01e5	2.07e5	15190	inactive
CG12078	DRSC08242	1.21e5	1.33e5	1.65e5	1.24e5	6865	inactive
Bet5	DRSC14600	1.33e5	1.24e5	1.35e5	1.32e5	10900	inactive
Rad17	DRSC16811	2.23e5	2.07e5	2.92e5	2.81e5	17595	active
IFT43	DRSC02892	2.11e5	2.02e5	1.99e5	1.70e5	17890	inactive
Not3	DRSC04908	79005	70315	92220	1.03e5	7900	active
CG15563	DRSC15101	1.40e5	1.25e5	2.16e5	1.65e5	10880	inactive
CG40583 (retired record)	DRSC20938	2.66e5	2.18e5	3.34e5	3.02e5	19140	inactive
CG43322	DRSC02280	78290	51185	70325	66435	4890	inactive
yellow-h	DRSC17141	97825	1.18e5	2.42e5	1.97e5	8220	inactive
CG11068	DRSC19369	1.03e5	75645	1.41e5	1.10e5	11785	inactive

Reformatted: 3 of the entries above.
gene knocked down,amplicon,"induced reporter light, run 1, well a","induced reporter light, run 1, well b","control promoter light, run 1, well a","control promoter light, run 1, well b","uninduced reporter light, run 1, well a",Call
Abp1,DRSC09693,50585,50670,61870,58010,6515,active
CG5819,DRSC04520,46675,46645,62900,61790,2470,inactive
Tsp29Fa,DRSC03232,99665,1.47e5,97525,1.14e5,17062,inactive
